Test results published in the supplement of paper PMC12823440, “Inhibitors supercharge kinase turnover through native proteolytic circuits” (Nature, 2025).
This is one part of the list. Hit calls seldom repeat between salt and free forms of one compound.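 In K562 cells expressing nanoluciferase-fused kinases, luminescence was recorded at 4 h intervals between 2 and 18 h, normalized as percent of control with DMSO at 100% and a positive control at 0%. A significant (2 sigma) signal drop marks a time point as decreased. The authors' rule for a hit is not shown and takes in more than the number of time points.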

The chains behind the UniProt entries cited, without tags or fusion partners. Where a name states a change or a piece, a line headed by the entry shows the natural chain unless it says otherwise.
UniProt P28482, whole entry: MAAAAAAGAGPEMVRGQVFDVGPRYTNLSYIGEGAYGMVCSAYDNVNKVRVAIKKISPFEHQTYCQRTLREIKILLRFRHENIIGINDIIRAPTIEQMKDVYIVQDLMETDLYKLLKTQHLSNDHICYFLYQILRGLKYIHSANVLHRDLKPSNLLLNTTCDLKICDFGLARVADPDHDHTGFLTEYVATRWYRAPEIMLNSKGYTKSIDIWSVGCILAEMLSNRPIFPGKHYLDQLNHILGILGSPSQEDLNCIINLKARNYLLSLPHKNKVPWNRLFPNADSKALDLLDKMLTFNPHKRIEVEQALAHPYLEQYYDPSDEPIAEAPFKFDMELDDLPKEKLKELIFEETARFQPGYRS
UniProt P31152, whole entry: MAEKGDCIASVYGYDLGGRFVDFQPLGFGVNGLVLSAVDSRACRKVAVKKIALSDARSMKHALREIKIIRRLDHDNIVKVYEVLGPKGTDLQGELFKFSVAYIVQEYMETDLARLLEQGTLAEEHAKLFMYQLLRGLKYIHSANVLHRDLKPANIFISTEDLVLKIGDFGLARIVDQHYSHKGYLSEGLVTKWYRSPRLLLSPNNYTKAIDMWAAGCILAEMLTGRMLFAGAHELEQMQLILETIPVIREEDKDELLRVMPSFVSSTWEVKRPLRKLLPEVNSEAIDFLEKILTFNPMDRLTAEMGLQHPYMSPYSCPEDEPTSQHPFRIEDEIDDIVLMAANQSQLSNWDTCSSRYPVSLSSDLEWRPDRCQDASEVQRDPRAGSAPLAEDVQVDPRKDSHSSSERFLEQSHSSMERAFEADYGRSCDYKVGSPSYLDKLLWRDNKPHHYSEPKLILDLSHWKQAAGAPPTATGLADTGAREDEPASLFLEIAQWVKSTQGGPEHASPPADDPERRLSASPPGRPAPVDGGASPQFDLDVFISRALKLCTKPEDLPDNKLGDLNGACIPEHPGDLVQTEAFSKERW
UniProt O96013: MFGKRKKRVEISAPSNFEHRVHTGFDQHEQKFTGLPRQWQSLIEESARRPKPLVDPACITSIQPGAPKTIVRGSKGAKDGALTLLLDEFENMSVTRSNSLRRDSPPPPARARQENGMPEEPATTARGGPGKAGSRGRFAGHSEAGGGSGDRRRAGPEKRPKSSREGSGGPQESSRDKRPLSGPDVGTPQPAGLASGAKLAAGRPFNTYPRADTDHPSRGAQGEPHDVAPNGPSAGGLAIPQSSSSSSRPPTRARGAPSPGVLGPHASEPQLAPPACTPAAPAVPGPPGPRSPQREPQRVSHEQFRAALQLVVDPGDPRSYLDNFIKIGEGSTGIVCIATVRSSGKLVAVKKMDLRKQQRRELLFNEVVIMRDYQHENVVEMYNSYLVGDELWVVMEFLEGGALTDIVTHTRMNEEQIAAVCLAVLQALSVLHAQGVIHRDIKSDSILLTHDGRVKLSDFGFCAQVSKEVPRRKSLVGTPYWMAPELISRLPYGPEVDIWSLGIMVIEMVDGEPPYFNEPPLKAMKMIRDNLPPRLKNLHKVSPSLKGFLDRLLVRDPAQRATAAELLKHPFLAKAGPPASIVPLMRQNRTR
UniProt Q96KB5: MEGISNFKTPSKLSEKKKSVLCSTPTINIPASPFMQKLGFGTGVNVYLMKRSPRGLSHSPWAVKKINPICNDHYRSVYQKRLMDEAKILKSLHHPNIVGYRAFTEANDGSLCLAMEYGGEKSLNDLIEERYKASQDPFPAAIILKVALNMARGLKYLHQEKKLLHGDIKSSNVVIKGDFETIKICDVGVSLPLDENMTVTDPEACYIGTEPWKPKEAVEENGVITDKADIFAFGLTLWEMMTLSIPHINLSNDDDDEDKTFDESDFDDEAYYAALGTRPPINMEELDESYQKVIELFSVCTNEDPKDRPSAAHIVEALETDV
UniProt O15530: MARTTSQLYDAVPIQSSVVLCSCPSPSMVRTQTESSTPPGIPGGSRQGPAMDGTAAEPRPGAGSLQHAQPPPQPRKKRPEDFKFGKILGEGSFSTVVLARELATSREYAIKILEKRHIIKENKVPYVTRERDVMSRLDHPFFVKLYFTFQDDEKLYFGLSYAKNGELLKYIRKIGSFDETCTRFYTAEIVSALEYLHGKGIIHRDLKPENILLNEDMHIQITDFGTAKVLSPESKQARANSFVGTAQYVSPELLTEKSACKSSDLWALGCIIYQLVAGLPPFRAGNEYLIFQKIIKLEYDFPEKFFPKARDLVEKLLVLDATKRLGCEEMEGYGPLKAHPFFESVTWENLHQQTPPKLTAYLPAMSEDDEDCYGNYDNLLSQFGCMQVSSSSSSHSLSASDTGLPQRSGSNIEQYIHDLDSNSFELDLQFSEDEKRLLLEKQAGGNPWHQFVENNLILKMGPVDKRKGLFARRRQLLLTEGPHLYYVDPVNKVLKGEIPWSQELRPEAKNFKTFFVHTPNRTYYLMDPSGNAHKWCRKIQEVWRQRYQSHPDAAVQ
UniProt Q9UBF8: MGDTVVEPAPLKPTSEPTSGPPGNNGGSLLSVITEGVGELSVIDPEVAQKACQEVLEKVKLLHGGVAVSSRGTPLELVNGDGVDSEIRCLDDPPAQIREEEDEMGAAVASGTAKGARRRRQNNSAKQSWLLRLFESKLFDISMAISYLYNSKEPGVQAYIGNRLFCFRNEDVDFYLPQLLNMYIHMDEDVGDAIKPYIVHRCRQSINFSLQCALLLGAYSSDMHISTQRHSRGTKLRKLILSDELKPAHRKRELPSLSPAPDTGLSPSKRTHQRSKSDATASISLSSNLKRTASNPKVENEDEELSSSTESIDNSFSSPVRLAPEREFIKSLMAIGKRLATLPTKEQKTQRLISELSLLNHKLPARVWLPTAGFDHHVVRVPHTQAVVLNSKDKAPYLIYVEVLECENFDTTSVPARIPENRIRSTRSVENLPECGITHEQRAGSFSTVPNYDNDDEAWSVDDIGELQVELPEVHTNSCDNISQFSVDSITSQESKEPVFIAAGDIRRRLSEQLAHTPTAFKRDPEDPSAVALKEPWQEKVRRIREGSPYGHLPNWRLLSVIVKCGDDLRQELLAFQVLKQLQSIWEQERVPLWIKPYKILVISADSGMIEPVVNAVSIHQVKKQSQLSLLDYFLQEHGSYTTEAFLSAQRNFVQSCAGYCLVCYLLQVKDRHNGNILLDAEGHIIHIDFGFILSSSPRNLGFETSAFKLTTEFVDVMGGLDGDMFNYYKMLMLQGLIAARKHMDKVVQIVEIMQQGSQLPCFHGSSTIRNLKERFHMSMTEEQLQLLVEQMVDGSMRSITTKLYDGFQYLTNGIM
UniProt Q13131: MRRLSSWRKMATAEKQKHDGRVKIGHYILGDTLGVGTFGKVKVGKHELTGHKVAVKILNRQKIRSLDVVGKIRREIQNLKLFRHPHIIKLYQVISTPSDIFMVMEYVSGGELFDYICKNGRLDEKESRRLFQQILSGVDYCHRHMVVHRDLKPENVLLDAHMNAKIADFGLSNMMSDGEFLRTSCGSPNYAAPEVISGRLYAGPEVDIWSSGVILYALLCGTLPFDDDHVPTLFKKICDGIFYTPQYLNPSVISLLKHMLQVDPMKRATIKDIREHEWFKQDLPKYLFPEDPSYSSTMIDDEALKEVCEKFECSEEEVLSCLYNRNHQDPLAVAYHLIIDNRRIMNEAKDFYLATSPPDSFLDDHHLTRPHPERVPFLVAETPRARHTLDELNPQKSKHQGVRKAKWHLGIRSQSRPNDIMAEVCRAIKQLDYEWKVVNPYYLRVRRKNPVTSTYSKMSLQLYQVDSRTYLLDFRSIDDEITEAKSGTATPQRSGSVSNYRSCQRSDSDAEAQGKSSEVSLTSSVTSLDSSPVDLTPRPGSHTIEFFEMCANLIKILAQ
UniProt Q05397, whole entry, looked up: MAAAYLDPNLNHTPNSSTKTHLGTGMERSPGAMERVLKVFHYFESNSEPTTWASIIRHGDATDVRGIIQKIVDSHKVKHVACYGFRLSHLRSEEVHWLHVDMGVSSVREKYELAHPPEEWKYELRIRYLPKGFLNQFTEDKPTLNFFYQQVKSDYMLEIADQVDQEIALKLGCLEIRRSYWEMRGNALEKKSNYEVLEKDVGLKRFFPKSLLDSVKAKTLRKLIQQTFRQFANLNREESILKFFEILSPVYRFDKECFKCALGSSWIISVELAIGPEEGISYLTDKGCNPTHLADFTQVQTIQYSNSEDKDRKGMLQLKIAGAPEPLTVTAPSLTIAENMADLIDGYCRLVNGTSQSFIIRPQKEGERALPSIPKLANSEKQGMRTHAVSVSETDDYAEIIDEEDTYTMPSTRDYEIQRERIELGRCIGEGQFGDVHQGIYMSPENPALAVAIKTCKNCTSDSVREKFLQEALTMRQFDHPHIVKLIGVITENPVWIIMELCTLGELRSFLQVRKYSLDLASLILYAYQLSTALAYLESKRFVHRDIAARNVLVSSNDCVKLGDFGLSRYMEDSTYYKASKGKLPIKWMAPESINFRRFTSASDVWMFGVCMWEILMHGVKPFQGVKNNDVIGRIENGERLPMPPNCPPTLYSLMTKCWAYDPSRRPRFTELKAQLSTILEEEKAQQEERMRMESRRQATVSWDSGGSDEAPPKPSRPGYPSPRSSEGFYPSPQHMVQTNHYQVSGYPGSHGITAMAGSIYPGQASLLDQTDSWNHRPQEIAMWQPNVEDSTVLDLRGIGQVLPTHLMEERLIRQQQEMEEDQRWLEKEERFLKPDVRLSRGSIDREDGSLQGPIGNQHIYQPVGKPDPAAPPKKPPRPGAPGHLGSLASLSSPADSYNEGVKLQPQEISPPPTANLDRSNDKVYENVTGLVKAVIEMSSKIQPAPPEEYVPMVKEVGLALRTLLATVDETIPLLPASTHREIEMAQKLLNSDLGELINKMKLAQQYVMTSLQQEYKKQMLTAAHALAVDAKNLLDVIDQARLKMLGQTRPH
UniProt Q14289, whole entry, looked up: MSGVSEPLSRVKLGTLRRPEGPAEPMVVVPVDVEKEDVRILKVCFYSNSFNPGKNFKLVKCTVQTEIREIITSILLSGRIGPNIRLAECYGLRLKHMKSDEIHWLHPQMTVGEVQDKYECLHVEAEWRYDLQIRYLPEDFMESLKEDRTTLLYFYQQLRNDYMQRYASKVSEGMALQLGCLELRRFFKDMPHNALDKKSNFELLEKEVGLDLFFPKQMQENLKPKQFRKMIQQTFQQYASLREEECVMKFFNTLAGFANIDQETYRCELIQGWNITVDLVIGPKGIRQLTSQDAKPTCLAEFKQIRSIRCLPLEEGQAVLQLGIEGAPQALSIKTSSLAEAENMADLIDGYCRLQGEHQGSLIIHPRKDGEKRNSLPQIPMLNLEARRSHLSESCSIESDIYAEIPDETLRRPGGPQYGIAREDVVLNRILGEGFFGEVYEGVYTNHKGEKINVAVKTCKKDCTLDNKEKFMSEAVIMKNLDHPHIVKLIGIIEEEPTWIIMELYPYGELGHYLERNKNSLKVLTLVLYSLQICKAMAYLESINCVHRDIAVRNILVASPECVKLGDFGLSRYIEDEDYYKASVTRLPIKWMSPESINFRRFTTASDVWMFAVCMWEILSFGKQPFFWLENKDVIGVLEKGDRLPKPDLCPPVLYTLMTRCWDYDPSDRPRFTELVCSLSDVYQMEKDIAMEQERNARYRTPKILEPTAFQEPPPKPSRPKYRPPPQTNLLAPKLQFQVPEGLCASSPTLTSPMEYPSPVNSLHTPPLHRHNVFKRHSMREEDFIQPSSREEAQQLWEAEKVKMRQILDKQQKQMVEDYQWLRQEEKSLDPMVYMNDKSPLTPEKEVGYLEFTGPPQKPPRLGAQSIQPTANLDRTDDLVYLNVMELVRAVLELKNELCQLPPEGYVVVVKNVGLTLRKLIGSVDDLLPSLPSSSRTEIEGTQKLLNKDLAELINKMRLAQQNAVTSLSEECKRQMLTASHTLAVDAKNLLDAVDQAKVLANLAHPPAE

How the values were obtained:
Assay in all cases: kinase-Nluc reporter destabilization hit call (1 = scored as downregulated) (binary); higher = compound decreases kinase abundance
Details in all cases: K562; 2-18 h
[1] = target: MAPK1 (UniProt P28482)
[2] = target: MAPK4 (UniProt P31152)
[3] = target: MAPKAPK2 (UniProt P49137)
[4] = target: MKNK1 (UniProt Q9BUB5)
[5] = target: NTRK2 (UniProt Q16620)
[6] = target: NTRK3 (UniProt Q16288)
[7] = target: PAK4 (UniProt O96013)
[8] = target: PBK (UniProt Q96KB5)
[9] = target: PDGFRB (UniProt P09619)
[10] = target: PDK1 (UniProt Q15118)
[11] = target: PDPK1 (UniProt O15530)
[12] = target: PIK4CA (UniProt P42356)
[13] = target: PIK4CB (UniProt Q9UBF8)
[14] = target: PLK1 (UniProt P53350)
[15] = target: PRKAA1 (UniProt Q13131)
[16] = target: PRKCA (UniProt P17252)
[17] = target: PTK2 (UniProt Q05397)
[18] = target: PTK2B (UniProt Q14289)
[19] = target: RAF1 (UniProt P04049)
[20] = target: RAF1_S257L (clone: RAF1_mut) (UniProt P04049)

Measured: kinase-Nluc reporter destabilization hit call

N#C/C(=C/c1ccc(O)c(O)c1)C(=O)N1CCc2ccccc21 [Tyrphostin AG 528] (10 µM)
inactive: [1] 0 | [2] 0 | [3] 0 | [4] 0 | [5] 0 | [6] 0 | [7] 0 | [8] 0 | [9] 0 | [10] 0 | [11] 0 | [12] 0 | [13] 0 | [14] 0 | [15] 0 | [16] 0 | [17] 0 | [18] 0 | [19] 0 | [20] 0

COCCOc1cnc2ccn([C@H](C)c3nnc4c(F)cc(-c5cnn(C)c5)cn34)c(=O)c2c1 (10 µM)
inactive: [1] 0 | [2] 0 | [3] 0 | [4] 0 | [5] 0 | [6] 0 | [7] 0 | [8] 0 | [9] 0 | [10] 0 | [11] 0 | [12] 0 | [13] 0 | [14] 0 | [15] 0 | [16] 0 | [17] 0 | [18] 0 | [19] 0 | [20] 0

CN1CCN(c2ccc(-c3ccncc3-c3cc(F)c(O)c(F)c3)cc2)CC1 (10 µM)
inactive: [1] 0 | [2] 0 | [3] 0 | [4] 0 | [5] 0 | [6] 0 | [7] 0 | [8] 0 | [9] 0 | [10] 0 | [11] 0 | [12] 0 | [13] 0 | [14] 0 | [15] 0 | [16] 0 | [17] 0 | [18] 0 | [19] 0 | [20] 0

Cc1ccc(NC(=O)N2CCN(c3nc(N)nc4sc(-c5cccnc5)nc34)CC2)cc1 [PI4KIII beta inhibitor 3] (10 µM)
inactive: [1] 0 | [2] 0 | [3] 0 | [4] 0 | [5] 0 | [6] 0 | [7] 0 | [8] 0 | [9] 0 | [10] 0 | [11] 0 | [12] 0 | [14] 0 | [15] 0 | [16] 0 | [17] 0 | [18] 0 | [19] 0 | [20] 0

Cc1cccc(-c2nn3c(c2-c2ccnc4ccc(C(N)=O)cc24)CCC3)n1 [Galunisertib] (10 µM)
inactive: [1] 0 | [2] 0 | [3] 0 | [4] 0 | [5] 0 | [7] 0 | [8] 0 | [9] 0 | [10] 0 | [11] 0 | [12] 0 | [13] 0 | [14] 0 | [15] 0 | [16] 0 | [17] 0 | [18] 0 | [19] 0 | [20] 0

CC1=CC(=O)C(C(C)C)=C/C1=N/OC(=O)c1ccccc1C [Poloxin] (2.5 µM)
inactive: [1] 0 | [2] 0 | [3] 0 | [4] 0 | [5] 0 | [6] 0 | [7] 0 | [8] 0 | [9] 0 | [10] 0 | [11] 0 | [12] 0 | [13] 0 | [15] 0 | [16] 0 | [17] 0 | [18] 0 | [19] 0 | [20] 0

CCCS(=O)(=O)N[C@H]1C[C@@H](N(C)c2ncnc3[nH]ccc23)C1 [Abrocitinib] (10 µM)
inactive: [1] 0 | [2] 0 | [3] 0 | [4] 0 | [5] 0 | [6] 0 | [7] 0 | [8] 0 | [9] 0 | [10] 0 | [11] 0 | [12] 0 | [13] 0 | [14] 0 | [15] 0 | [16] 0 | [17] 0 | [18] 0 | [19] 0 | [20] 0

O=C(COc1ccc(Cl)cc1)NC1CCC(NC(=O)COc2ccc(Cl)cc2)CC1 (stereo not drawn) [ISRIB (trans-isomer)] (10 µM)
inactive: [1] 0 | [2] 0 | [3] 0 | [4] 0 | [6] 0 | [7] 0 | [8] 0 | [9] 0 | [10] 0 | [11] 0 | [12] 0 | [13] 0 | [14] 0 | [15] 0 | [16] 0 | [17] 0 | [18] 0 | [19] 0 | [20] 0

Arranged by SMILES length (falling): part of the list above
COCCOc1cnc2ccn([C@H](C)c3nnc4c(F)cc(-c5cnn(C)c5)cn34)c(=O)c2c1 (10 µM)
inactive: [1] 0 | [2] 0 | [3] 0 | [4] 0 | [5] 0 | [6] 0 | [7] 0 | [8] 0 | [9] 0 | [10] 0 | [11] 0 | [12] 0 | [13] 0 | [14] 0 | [15] 0 | [16] 0 | [17] 0 | [18] 0 | [19] 0 | [20] 0

Cc1ccc(NC(=O)N2CCN(c3nc(N)nc4sc(-c5cccnc5)nc34)CC2)cc1 [PI4KIII beta inhibitor 3] (10 µM)
inactive: [1] 0 | [2] 0 | [3] 0 | [4] 0 | [5] 0 | [6] 0 | [7] 0 | [8] 0 | [9] 0 | [10] 0 | [11] 0 | [12] 0 | [14] 0 | [15] 0 | [16] 0 | [17] 0 | [18] 0 | [19] 0 | [20] 0

O=C(COc1ccc(Cl)cc1)NC1CCC(NC(=O)COc2ccc(Cl)cc2)CC1 (stereo not drawn) [ISRIB (trans-isomer)] (10 µM)
inactive: [1] 0 | [2] 0 | [3] 0 | [4] 0 | [6] 0 | [7] 0 | [8] 0 | [9] 0 | [10] 0 | [11] 0 | [12] 0 | [13] 0 | [14] 0 | [15] 0 | [16] 0 | [17] 0 | [18] 0 | [19] 0 | [20] 0

Cc1cccc(-c2nn3c(c2-c2ccnc4ccc(C(N)=O)cc24)CCC3)n1 [Galunisertib] (10 µM)
inactive: [1] 0 | [2] 0 | [3] 0 | [4] 0 | [5] 0 | [7] 0 | [8] 0 | [9] 0 | [10] 0 | [11] 0 | [12] 0 | [13] 0 | [14] 0 | [15] 0 | [16] 0 | [17] 0 | [18] 0 | [19] 0 | [20] 0

Next part

O=C(O)/C=C(\CCc1ccc(Cl)cc1)c1ccccc1 (10 µM)
inactive: [1] 0 | [2] 0 | [3] 0 | [4] 0 | [5] 0 | [6] 0 | [7] 0 | [8] 0 | [9] 0 | [10] 0 | [12] 0 | [13] 0 | [14] 0 | [15] 0 | [16] 0 | [17] 0 | [18] 0 | [19] 0 | [20] 0

Cc1nc(NC(=O)N2CCC[C@H]2C(N)=O)sc1-c1ccnc(C(C)(C)C(F)(F)F)c1 [Alpelisib] (2.5 µM)
inactive: [1] 0 | [2] 0 | [3] 0 | [4] 0 | [5] 0 | [6] 0 | [7] 0 | [8] 0 | [9] 0 | [10] 0 | [11] 0 | [12] 0 | [13] 0 | [14] 0 | [15] 0 | [16] 0 | [17] 0 | [18] 0 | [19] 0 | [20] 0

CN1C(=O)[C@@H](NC(=O)c2cc(Cc3ccccc3)on2)COc2ccccc21 (10 µM)
inactive: [1] 0 | [2] 0 | [3] 0 | [4] 0 | [5] 0 | [6] 0 | [7] 0 | [8] 0 | [9] 0 | [10] 0 | [11] 0 | [12] 0 | [13] 0 | [14] 0 | [15] 0 | [16] 0 | [17] 0 | [18] 0 | [19] 0 | [20] 0

C[C@H](Nc1cc2c(-c3ccc4c(c3)OCO4)noc2cn1)c1ccccc1 (10 µM)
inactive: [1] 0 | [2] 0 | [3] 0 | [4] 0 | [5] 0 | [6] 0 | [7] 0 | [8] 0 | [9] 0 | [10] 0 | [11] 0 | [12] 0 | [13] 0 | [15] 0 | [16] 0 | [17] 0 | [18] 0 | [19] 0 | [20] 0

O=C(O)c1c[nH]c2cc(Cl)c(-c3ccc(C4(O)CCC4)cc3)cc12 (10 µM)
inactive: [1] 0 | [2] 0 | [3] 0 | [4] 0 | [5] 0 | [6] 0 | [7] 0 | [8] 0 | [9] 0 | [10] 0 | [11] 0 | [12] 0 | [13] 0 | [14] 0 | [16] 0 | [17] 0 | [18] 0 | [19] 0 | [20] 0

O=[N+]([O-])c1ccc(-c2nc(-c3ccc(F)cc3)c(-c3ccncc3)[nH]2)cc1 (10 µM)
inactive: [1] 0 | [2] 0 | [3] 0 | [4] 0 | [5] 0 | [6] 0 | [7] 0 | [8] 0 | [9] 0 | [10] 0 | [11] 0 | [12] 0 | [13] 0 | [14] 0 | [15] 0 | [16] 0 | [18] 0 | [19] 0 | [20] 0

CN1CCC(Nc2ccc(C(=O)Nc3cc(-c4ccc5c(c4)OCO5)[nH]n3)cc2)CC1 (10 µM)
inactive: [1] 0 | [2] 0 | [3] 0 | [4] 0 | [5] 0 | [7] 0 | [8] 0 | [9] 0 | [10] 0 | [11] 0 | [12] 0 | [13] 0 | [14] 0 | [15] 0 | [16] 0 | [17] 0 | [18] 0 | [19] 0 | [20] 0

Cc1nn(CC(F)(F)F)cc1Nc1ncc(Br)c(NCc2ccc(S(N)(=O)=O)cc2)n1 (10 µM)
inactive: [1] 0 | [2] 0 | [3] 0 | [4] 0 | [5] 0 | [6] 0 | [7] 0 | [8] 0 | [9] 0 | [10] 0 | [11] 0 | [12] 0 | [13] 0 | [14] 0 | [15] 0 | [16] 0 | [17] 0 | [18] 0 | [19] 0 | [20] 0

CCCCC(=O)OCC(=O)[C@]1(O)Cc2c(O)c3c(c(O)c2[C@@H](O[C@H]2C[C@H](NC(=O)C(F)(F)F)[C@H](O)[C@H](C)O2)C1)C(=O)c1c(OC)cccc1C3=O [Valrubicin] (10 µM)
inactive: [1] 0 | [2] 0 | [3] 0 | [4] 0 | [5] 0 | [6] 0 | [7] 0 | [8] 0 | [9] 0 | [10] 0 | [11] 0 | [12] 0 | [13] 0 | [14] 0 | [15] 0 | [16] 0 | [17] 0 | [18] 0 | [19] 0 | [20] 0

COc1cc2nccc(Nc3cccc(Oc4ccccc4)c3)c2cc1OC (2.5 µM)
inactive: [1] 0 | [2] 0 | [3] 0 | [4] 0 | [5] 0 | [6] 0 | [7] 0 | [8] 0 | [9] 0 | [10] 0 | [11] 0 | [12] 0 | [13] 0 | [14] 0 | [15] 0 | [16] 0 | [17] 0 | [18] 0 | [19] 0 | [20] 0
